B1: TOL6 (protein, UniProt O80910 1-671)
chain: MASSSASATVAVDKATSDLLLGPDWTTNMEICDSVNSLHWQAKDVVKAVKKRLQHKSSRVQLLALTLLETLVKNCGDYLHHQVAEKNILGEMVKIVKKKADMQVRDKILVMVDSWQQAFGGPEGKYPQYYWAYDELRRSGVEFPRRSPDASPIITPPVSHPPLRQPQGGYGVPPAGYGVHQAGYGVPQAGYGIPQAGYGVPQAGYGIPQVGYGMPSGSSRRLDEAMATEVEGLSLSSIESMRDVMDLLGDMLQAVDPSDREAVKDEVIVDLVERCRSNQKKLMQMLTSTGDDELLGRGLDLNDSLQILLAKHDAIASGSPLPVQASGSPLSVQASKPADSSPKSSEAKDSSSIAGSSSPIPATVSTGKSPIDEEYEEEEDEFAQLARRHSKPPASVTTDPTSLESHNAASNALALALPDPPPPVNTTKEQDMIDLLSITLCTPSTPPAPSSQPSPPPPAGSDQNTHIYPQPQPRFDSYVAPWAQQQQPQQPQAQQGYSQHQQHQQQQGYSQPQHSQQQQGYSQLQQPQPQQGYSQSQPQAQVQMQPSTRPQNPYEYPPPPWASTSANAYYTPRANASASYTDTSALAGRSLQQSNSFPTRAGDPQATSTASNSGVSVGQKPFVPSYRLFEDLDVFGSADGKHNKPANSSNGSQNLSGSQTQQSMIGGRKMI
B2: Secretory Carrier Membrane Protein 5 (protein, UniProt Q9SXA5 1-291)
chain: MGGRYDRNTFDEQDEVNPFANPGSVPAASNSRLSPLPPEPAGFGYGRTVDIPLDRPGSGAQDLKKKEKELQAKEADLRRREQDLKRKQDAAARAGIVIEAKNWPTFFPLIHHDIANEILVRLQRLQYIAFATYLGLVLALFWNIIAVTTAWIKGEGVTIWLLAVIYFISGVPGGYVLWYRPLYRAFRSDSAFNFGWFFLFYMLHILFCLFAAVAPPIVFKGKSLAGILPAIDVLSAQALVGIFYFIGFGLFCLESVVSIWVIQQVYMYFRGSGKADDMRRDAARGAMRAAI
B3: TOL9 (protein, UniProt Q8L860 1-675)
chain: MVNAMVERATSEMLIGPDWAMNLEICDMLNSDPAQAKDVVKGIKKRIGSRNPKAQLLALTLLETIVKNCGDMVHMHVAEKGVIHEMVRIVKKKPDFHVKEKILVLIDTWQEAFGGPRARYPQYYAGYQELLRAGAVFPQRSERSAPVFTPPQTQPLTSYPPNLRNAGPGNDVPEPSAEPEFPTLSLSEIQNAKGIMDVLAEMLSALEPGNKEDLKQEVMVDLVEQCRTYKQRVVHLVNSTSDESLLCQGLALNDDLQRVLTNYEAIASGLPGTSSQIEKPKSETGKSLVDVDGPLIDTGDSSNQANGATSSSGNGVLNQLALPAPPVTNGSANSKIDLLSGDDLALVPVGPPQPASPVASDQNALALIDMFSDNTNNPSPATAPSGNPAQNIPLNPQGHQQPNSQAGEAGLQQSNGFAPQVGYSQFEQPSYGQGVSSPWSSQPAQQPVQPSYGAQDSTAFPPPPWEAQLQDYSPSAESGSPFSPGMHPTQTAFTHAQPVNNNNPYPQIPQTGPPVNNNSPYAQMPQTGQAVANISPYPQIPQNGVYMPNQPNQALGSGYQPQQQQQQQMMMAQYYAQQQQLQQQQQQQAYGNQMGGYGYGYNQQQQGSSPYLDQQMYGLSMRDQTSHQVASSSSTTSYLPPMKPKNKPEDKLFGDLVDISKFKPTKPTSGRAGTM

Chains of the proteins cited; added tags and fusions are not shown.
UniProt F4J8D3: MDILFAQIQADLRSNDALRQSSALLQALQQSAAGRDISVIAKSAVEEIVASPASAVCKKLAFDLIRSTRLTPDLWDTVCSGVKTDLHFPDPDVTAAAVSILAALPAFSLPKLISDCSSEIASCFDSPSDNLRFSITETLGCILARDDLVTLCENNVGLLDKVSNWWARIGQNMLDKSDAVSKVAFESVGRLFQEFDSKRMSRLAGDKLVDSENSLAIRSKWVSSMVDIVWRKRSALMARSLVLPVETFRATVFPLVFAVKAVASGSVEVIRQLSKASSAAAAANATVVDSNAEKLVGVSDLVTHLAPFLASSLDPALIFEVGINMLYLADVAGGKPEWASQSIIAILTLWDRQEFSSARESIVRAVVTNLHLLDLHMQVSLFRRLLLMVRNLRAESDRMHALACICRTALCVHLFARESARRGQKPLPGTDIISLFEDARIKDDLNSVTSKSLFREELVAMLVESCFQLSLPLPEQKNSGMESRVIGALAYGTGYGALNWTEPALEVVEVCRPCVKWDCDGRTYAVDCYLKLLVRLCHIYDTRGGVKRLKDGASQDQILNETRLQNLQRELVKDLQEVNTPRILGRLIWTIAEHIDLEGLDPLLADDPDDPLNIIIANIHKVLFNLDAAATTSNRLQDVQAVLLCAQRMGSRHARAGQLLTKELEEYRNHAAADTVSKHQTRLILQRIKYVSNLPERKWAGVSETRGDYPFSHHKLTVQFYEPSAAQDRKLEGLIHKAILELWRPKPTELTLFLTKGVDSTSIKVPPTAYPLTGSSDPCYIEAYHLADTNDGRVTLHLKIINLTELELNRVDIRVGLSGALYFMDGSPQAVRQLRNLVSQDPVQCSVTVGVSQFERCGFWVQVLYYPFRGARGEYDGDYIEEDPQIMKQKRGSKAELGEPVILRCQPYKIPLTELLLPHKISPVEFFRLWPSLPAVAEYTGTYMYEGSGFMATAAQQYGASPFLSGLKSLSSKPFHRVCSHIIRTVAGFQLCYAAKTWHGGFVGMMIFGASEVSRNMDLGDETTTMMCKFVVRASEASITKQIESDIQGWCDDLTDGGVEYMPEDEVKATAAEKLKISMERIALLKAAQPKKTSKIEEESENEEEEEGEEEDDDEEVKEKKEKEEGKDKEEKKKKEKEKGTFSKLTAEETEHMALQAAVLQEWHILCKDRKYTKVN

No constants are given. Whether binding was seen depends on the method and setting. Binding seen in cells or lysates may run through a third protein. A yes stands for co-enrichment or nearness to the bait. Other partners may have been found.

This experiment addresses TPLATE-linkerTurboID (A. thaliana) (UniProt F4J8D3). The experiment is described as follows: proximity labelling.
B1: the binding result is on record as “binds”.

B2: the binding result is “binds”.

On to B3, for which the binding entry was “binds”.

The record behind these values is publication doi:10.1101/701425.
